Assay results published in publication PMC3554688, “Potassium and Ionic Strength Effects on the Conformational and Thermal Stability of Two Aldehyde Dehydrogenases Reveal Structural and Functional Roles of K^+-Binding Sites” (PLoS ONE, 2013).
No constants are given. Whether binding was seen depends on the method and setting. Some results given as binding are weak or reduced against the parent protein; the word gives no strength.

B1: betaine aldehyde dehydrogenase from Pseudomonas aeruginosa (enzyme)
chain: MARFEEQKLYIGGRYVEASSGATFETINPANGEVLAKVQRASREDVERAVQSAVEGQKVWAAMTAMQRSRILRRAVDILRERNDELAALETLDTGKPLAETRSVDIVTGADVLEYYAGLVPAIEGEQIPLRETSFVYTRREPLGVVAGIGAWNYPVQIALWKSAPALAAGNAMIFKPSEVTPLTALKLAEIYTEAGVPDGVFNVLTGSGREVGQWLTEHPLIEKISFTGGTSTGKKVMASASSSSLKEVTMELGGKSPLIIFPDADLDRAADIAVMANFFSSGQVCTNGTRVFIHRSQQARFEAKVLERVQRIRLGDPQDENTNFGPLVSFPHMESVLGYIESGKAQKARLLCGGERVTDGAFGKGAYVAPTVFTDCRDDMTIVREEIFGPVMSILVYDDEDEAIRRANDTEYGLAAGVVTQDLARAHRAIHRLEAGICWINTWGESPAEMPVGGYKQSGVGRENGLTTLAHYTRIKSVQVELGDYASVF
notes: betaine aldehyde dehydrogenase (BADH, ALDH9) of Pseudomonas aeruginosa; recombinant; Homotetramer; also called PaBADH; ALDH9; source: E. coli, purified to homogeneity
B2: betaine aldehyde dehydrogenase from spinach (Spinacia oleracea) (enzyme)
chain: MAFPIPARQLFIDGEWREPIKKNRIPVINPSTEEIIGDIPAATAEDVEVAVVAARRAFRRNNWSATSGAHRATYLRAIAAKITEKKDHFVKLETIDSGKPFDEAVLDIDDVASCFEYFAGQAEALDGKQKAPVTLPMERFKSHVLRQPLGVVGLISPWNYPLLMATWKIAPALAAGCTAVLKPSELASVTCLEFGEVCNEVGLPPGVLNILTGLGPDAGAPLVSHPDVDKIAFTGSSATGSKVMASAAQLVKPVTLELGGKSPIVVFEDVDIDKVVEWTIFGCFWTNGQICSATSRLLVHESIAAEFVDKLVKWTKNIKISDPFEEGCRLGPVISKGQYDKIMKFISTAKSEGATILYGGSRPEHLKKGYYIEPTIVTDISTSMQIWKEEVFGPVLCVKTFSSEDEAIALANDTEYGLAAAVFSNDLERCERITKALEVGAVWVNCSQPCFVQAPWGGIKRSGFGRELGEWGIQNYLNIKQVTQDISDEPWGWYKS
notes: betaine aldehyde dehydrogenase (BADH, ALDH10) of Spinacia oleracea; recombinant; Homodimer in K-buffer; associates into tetramers in the non-salt buffer; also called SoBADH; ALDH10; source: E. coli, purified to homogeneity

Tests used:
[1] = target: betaine aldehyde dehydrogenase from Pseudomonas aeruginosa (Pseudomonas aeruginosa) (UniProt Q9HTJ1); experiment: SEC; Superdex 200 HR 10/30, room temperature; TEA-buffer (1 mM PIPES-TEA hydroxide pH 6.9, 1 mM EDTA, 0.5 mM DTT, 250 mM TEACl); data not shown; both purified
[2] = target: betaine aldehyde dehydrogenase from spinach (Spinacia oleracea) (Spinacia oleracea) (UniProt P17202); experiment: as above

| Binder | binding [1] | binding [2] |
| --- | --- | --- |
| B1 | binds | – |
| B2 | – | binds |
